{"source": "PubChem BioAssay AID504808 – Drosophila RNAi Screening Center | 2011", "purpose": "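Chromatin factors that keep E2F targets switched off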 (primary screen)", "system": "Drosophila S2 cells", "reagents": "long dsRNA against Drosophila genes", "measurement": "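Dual luciferase plate measurements; E2F-specific signal taken as firefly over Renilla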", "direction": "E2F firefly: higher = more E2F reporter activity; Renilla normaliser: higher = more normaliser reporter signal", "hit rule": "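a knock-down counted as active when the firefly/Renilla E2F signal rose above 50%, a threshold chosen arbitrarily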", "note": "The screen tested about 21,000 reagents; shown is an unselected part of those with a known target gene and a result. In the full data, 18 (0.084%) were called active. 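Raw counts without plate normalisation, one of two replicates; the ratio scores behind the calls were not deposited.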 Reagents against one gene are numbered here. A plus sign joins genes that one reagent is predicted to hit. Not stated in the record: the amount of reagent, the time to read-out."}
{"Gene": "nac", "reagent no.": 1, "E2F firefly, rep 1": 1.23e5, "Renilla normaliser, rep 1": 5849, "call": "inactive"}
{"Gene": "eEF1beta", "reagent no.": 1, "E2F firefly, rep 1": 69142, "Renilla normaliser, rep 1": 3749, "call": "inactive"}
{"Gene": "CG9733", "reagent no.": 1, "E2F firefly, rep 1": 1.22e5, "Renilla normaliser, rep 1": 6815, "call": "inactive"}
{"Gene": "vvl", "reagent no.": 1, "E2F firefly, rep 1": 96176, "Renilla normaliser, rep 1": 3996, "call": "inactive"}
{"Gene": "CG13227", "reagent no.": 1, "E2F firefly, rep 1": 1.08e5, "Renilla normaliser, rep 1": 4229, "call": "inactive"}
{"Gene": "CR18275 + CR18166 + CG32817", "reagent no.": 1, "E2F firefly, rep 1": 70929, "Renilla normaliser, rep 1": 2350, "call": "inactive"}
{"Gene": "CG7091", "reagent no.": 1, "E2F firefly, rep 1": 73767, "Renilla normaliser, rep 1": 2315, "call": "inactive"}
{"Gene": "CG7091", "reagent no.": 2, "E2F firefly, rep 1": 1.12e5, "Renilla normaliser, rep 1": 5477, "call": "inactive"}
{"Gene": "CG1233", "reagent no.": 1, "E2F firefly, rep 1": 77059, "Renilla normaliser, rep 1": 3359, "call": "inactive"}
{"Gene": "CG6770", "reagent no.": 1, "E2F firefly, rep 1": 94355, "Renilla normaliser, rep 1": 4432, "call": "inactive"}
{"Gene": "Coq5", "reagent no.": 1, "E2F firefly, rep 1": 1.29e5, "Renilla normaliser, rep 1": 6076, "call": "inactive"}
{"Gene": "Rac1", "reagent no.": 1, "E2F firefly, rep 1": 1.07e5, "Renilla normaliser, rep 1": 4378, "call": "inactive"}
{"Gene": "nes", "reagent no.": 1, "E2F firefly, rep 1": 1.49e5, "Renilla normaliser, rep 1": 8177, "call": "inactive"}
{"Gene": "Hand", "reagent no.": 1, "E2F firefly, rep 1": 1.42e5, "Renilla normaliser, rep 1": 4698, "call": "inactive"}
{"Gene": "lap", "reagent no.": 1, "E2F firefly, rep 1": 69506, "Renilla normaliser, rep 1": 3681, "call": "inactive"}

Copied from the entries so far, 4 entries:
{"Gene": "CG9733", "reagent no.": 1, "E2F firefly, rep 1": 1.22e5, "Renilla normaliser, rep 1": 6815, "call": "inactive"}
{"Gene": "vvl", "reagent no.": 1, "E2F firefly, rep 1": 96176, "Renilla normaliser, rep 1": 3996, "call": "inactive"}
{"Gene": "CG13227", "reagent no.": 1, "E2F firefly, rep 1": 1.08e5, "Renilla normaliser, rep 1": 4229, "call": "inactive"}
{"Gene": "CR18275 + CR18166 + CG32817", "reagent no.": 1, "E2F firefly, rep 1": 70929, "Renilla normaliser, rep 1": 2350, "call": "inactive"}

Additional entries follow.
{"Gene": "CG2269", "reagent no.": 1, "E2F firefly, rep 1": 3067, "Renilla normaliser, rep 1": 196, "call": "inactive"}
{"Gene": "CG6678", "reagent no.": 1, "E2F firefly, rep 1": 74597, "Renilla normaliser, rep 1": 3316, "call": "inactive"}
{"Gene": "swm", "reagent no.": 1, "E2F firefly, rep 1": 87228, "Renilla normaliser, rep 1": 3424, "call": "inactive"}
{"Gene": "Gnf1", "reagent no.": 1, "E2F firefly, rep 1": 96504, "Renilla normaliser, rep 1": 5422, "call": "inactive"}
{"Gene": "Rift", "reagent no.": 1, "E2F firefly, rep 1": 1.21e5, "Renilla normaliser, rep 1": 5535, "call": "inactive"}
{"Gene": "Su(var)2-10", "reagent no.": 1, "E2F firefly, rep 1": 3602, "Renilla normaliser, rep 1": 208, "call": "inactive"}
{"Gene": "Kal1", "reagent no.": 1, "E2F firefly, rep 1": 71281, "Renilla normaliser, rep 1": 4163, "call": "inactive"}
{"Gene": "CCHa1-R", "reagent no.": 1, "E2F firefly, rep 1": 1.60e5, "Renilla normaliser, rep 1": 5363, "call": "inactive"}
{"Gene": "CCHa1-R", "reagent no.": 2, "E2F firefly, rep 1": 1.48e5, "Renilla normaliser, rep 1": 5212, "call": "inactive"}
{"Gene": "Or85d", "reagent no.": 1, "E2F firefly, rep 1": 1.43e5, "Renilla normaliser, rep 1": 6908, "call": "inactive"}
{"Gene": "CCHa2", "reagent no.": 1, "E2F firefly, rep 1": 1.20e5, "Renilla normaliser, rep 1": 6413, "call": "inactive"}
{"Gene": "yip3", "reagent no.": 1, "E2F firefly, rep 1": 84803, "Renilla normaliser, rep 1": 4373, "call": "inactive"}
{"Gene": "rnh1", "reagent no.": 1, "E2F firefly, rep 1": 1.43e5, "Renilla normaliser, rep 1": 4686, "call": "inactive"}
